Consider 26 compounds from PubChem BioAssay AID328 (DTP/NCI, 2004).

In the experiment the test system is BDF1 mice, P388 leukemia ip, median survival T/C. As to the kind of experiment: NCI In Vivo Anticancer Drug Screen. Data for tumor model P388 Leukemia (intraperitoneal) in B6D2F1 (BDF1) mice. As to conditions: T/C endpoint: median survival time, higher T/C = longer survival. A digest of the protocol:
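Transplantable tumour in mice; compound vs vehicle dosing; survival scored; ratio of treated to control reported.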

Setting [1] is: dose: 50.0 mg/kg/injection, schedule: Q01DX009 (ip), vehicle: saline with Tween-80.
[2] abbreviates: dose: 100.0 mg/kg/injection, schedule: Q01DX009 (ip), vehicle: saline with Tween-80.
Where [3] appears, read: dose: 200.0 mg/kg/injection, schedule: Q01DX009 (ip), vehicle: saline with Tween-80.
The mark [4] stands for this setting: dose: 200.0 mg/kg/injection, schedule: Q01DX009 (ip), vehicle: saline.
[5] abbreviates: dose: 400.0 mg/kg/injection, schedule: Q01DX009 (ip), vehicle: saline.
[6] abbreviates: dose: 400.0 mg/kg/injection, schedule: Q04DX003 (ip), vehicle: saline.
Where [7] appears, read: dose: 100.0 mg/kg/injection, schedule: Q01DX009 (ip), vehicle: saline.

The list does not hold the whole screen: it gathers tests that were run many times, whatever their T/C, doses with no T/C, and many T/C values between a quarter and a half above the control. Other doses and runs of a compound stand elsewhere. T/C is the treated group as % of the vehicle group. Some doses have a count of surviving animals in place of a T/C: the source files T/C as zero there, which appears to mark a toxic dose or a test without result, not a measured value. Some survivor counts are full or nearly so, which does not show that the dose was tolerated: the source hardly ever lists a survival T/C far under the control, and the zero likely stands for such cases as well. Survivors were counted at the toxicity check, usually on the fifth day, unless a day is given; later deaths do not show. Schedule codes are those of the source, read here as Q, the interval in days (D) or hours (H), X, the number of doses. Brackets with × give the number of equal values in this list. Some doses were run more than once; the values are given in rising order. For survival time, this PubChem deposit counts one and a half times the control or more as active, and values a quarter to a half above the control carry no call in these data; other NCI protocols may use other cut-offs. Some T/C values carry the count of animals alive at the toxicity check (mostly the fifth day); where none is given, no animal had died by that day. Residues, ends and D or L forms follow the SMILES beside them.

Take `COc1c(Br)cc(/C=C/[N+](=O)[O-])cc1Br`: the T/C (dose: 6.25 mg/kg/injection, schedule: Q01DX009 (ip), vehicle: saline with Tween-80) was 132 % of control; the T/C (dose: 12.5 mg/kg/injection, schedule: Q01DX009 (ip), vehicle: saline with Tween-80) was 127 % of control; the T/C (dose: 25.0 mg/kg/injection, schedule: Q01DX009 (ip), vehicle: saline with Tween-80) was 137 % of control. Also, the survivor count is, setting by setting: under setting [1], 0 of 6 and 1 of 6; under setting [2], 0 of 6; under setting [3], 0 of 6.
`O=NN(CCCl)C(=O)Nc1c[nH]c(=O)[nH]c1=O`: the T/C runs as follows: (dose: 0.19 mg/kg/injection, schedule: Q04DX003 (ip), vehicle: saline with Tween-80) 130 % of control; (dose: 1.56 mg/kg/injection, schedule: Q04DX003 (ip), vehicle: saline with Tween-80) 133 % of control. The survivor count is, setting by setting: under setting [1], 6 of 6; (dose: 100.0 mg/kg/injection, schedule: Q04DX003 (ip), vehicle: saline with Tween-80) 6 of 6; (dose: 200.0 mg/kg/injection, schedule: Q04DX003 (ip), vehicle: saline with Tween-80) 6 of 6; (dose: 400.0 mg/kg/injection, schedule: Q04DX003 (ip), vehicle: saline with Tween-80) 5 of 6.
In the case of `CN(C)CCCNc1ccc(O)c2c1C(=O)c1ccccc1C2=O`, the T/C is, setting by setting: (dose: 50.0 mg/kg/injection, schedule: Q01DX009 (ip), vehicle: saline, evaluated on day 20) 106 [5 of 6 alive], 121, 125 % of control; (dose: 50.0 mg/kg/injection, schedule: Q01DX009 (ip), vehicle: saline, evaluated on day 30) 117 % of control; (dose: 100.0 mg/kg/injection, schedule: Q01DX009 (ip), vehicle: saline, evaluated on day 20) 112 [5 of 6 alive], 116, 131 % of control; (dose: 100.0 mg/kg/injection, schedule: Q01DX009 (ip), vehicle: saline, evaluated on day 30) 117 % of control; under setting [4], 144 % of control. For the same compound, the survivor count was 5 of 6 under setting [4], 0 of 6 (2×) under setting [5] and 5 of 6 under setting [6].
Take `CCc1nc2ccccc2c(=O)n1C`: under setting [2], the survivor count is on record as 6 of 6.
With `Clc1ccc(-c2cc[s+]s2)cc1`, the survivor count (dose: 100.0 mg/kg/injection, schedule: Q01DX009 (ip), vehicle: water) is given as 2 of 6 and the survivor count (dose: 200.0 mg/kg/injection, schedule: Q04DX003 (ip), vehicle: water) is recorded as 0 of 6.
Regarding `O=C(Cl)C1=C(c2ccccc2)C1c1ccccc1` (centres undefined), the survivor count under setting [3] was 0 of 6.
As for `CC([NH-])C(=O)O.O=C(O)CN(CC(=O)O)CC(=O)O.[Co+2]`, the T/C under setting [7] is 104, 123 [5 of 6 alive], 125, 130 % of control. Also, the survivor count under setting [4] was 3 of 6 and 6 of 6; the survivor count under setting [5] is 1 of 6.
Regarding `O=CN1CCN(c2ccc([N+](=O)[O-])c3no[n+]([O-])c23)CC1`, the T/C by setting is: (dose: 3.75 mg/kg/injection, schedule: Q01DX009 (ip), vehicle: saline with Tween-80) 135 % of control; (dose: 7.5 mg/kg/injection, schedule: Q01DX009 (ip), vehicle: saline with Tween-80) 142 % of control; (dose: 15.0 mg/kg/injection, schedule: Q01DX009 (ip), vehicle: saline with Tween-80) 129 % of control.
On to `CC1=C/C(O)CC(=O)Cc2nc(co2)C(=O)N2CCC=C2C(=O)OC(C(C)C)C(C)/C=C\C(=O)NC/C=C\1` (centres undefined), for which the T/C runs as follows: (dose: 200.0 mg/kg/injection, schedule: Q01DX009 (ip), vehicle: Klucel (hydroxypropylcellulose) (HPC)) 136 % of control; (dose: 400.0 mg/kg/injection, schedule: Q01DX009 (ip), vehicle: Klucel (hydroxypropylcellulose) (HPC)) 145 % of control.
Regarding `O=CN1CCN(c2ccc([N+](=O)[O-])c3nonc23)CC1`, the survivor count (dose: 60.0 mg/kg/injection, schedule: Q01DX009 (ip), vehicle: saline with Tween-80) is on record as 4 of 7.
Consider `CCOC(=O)C(Br)(C(=O)OCC)C(c1ccccc1)c1ccccc1`, for which the survivor count under setting [3] is listed as 4 of 6.
On to `CCN(CC)CCCC(C)Nc1cc(C)nc2cc(N(C)C)ccc12` (centres undefined), for which, under “dose: 25.0 mg/kg/injection, schedule: Q01DX009 (ip), vehicle: Klucel (hydroxypropylcellulose) (HPC)”, the T/C is 132 % of control.
`C/C=C1\C[N+]2(C)CCC34c5ccccc5NC32C(O)CC1C4(CO)C(=O)OC` (centres undefined): where the note is “dose: 16.0 mg/kg/injection, schedule: Q01DX009 (ip), vehicle: saline with Tween-80”, the T/C was 127 % of control.
As for `CCC(C)(O)C(=O)OC1C(=O)OC2CC3C(C)CC(=O)C(O)C3(C)C3C4(O)OCC23C1C(C)C4O` (centres undefined), the T/C is 127 % of control (dose: 2.0 mg/kg/injection, schedule: Q01DX009 (ip), vehicle: saline with Tween-80); 127 % of control (dose: 4.0 mg/kg/injection, schedule: Q01DX009 (ip), vehicle: saline with Tween-80); 129 % of control (dose: 32.0 mg/kg/injection, schedule: Q01DX009 (ip), vehicle: saline with Tween-80).
In the case of `CCCN=C(N)c1ccc(N=C(N)c2ccc(N=C(N)c3ccc(C(N)=NCCC)cc3)cc2)cc1`, the T/C (dose: 6.6 mg/kg/injection, schedule: Q01DX009 (ip), vehicle: saline) was 140 % of control.
Regarding `CC12CCCCC1=Nc1ccc3ccccc3c12` (centres undefined), the survivor count by setting is: (dose: 50.0 mg/kg/injection, schedule: Q01DX009 (ip), vehicle: saline + alcohol) 0 of 6; (dose: 200.0 mg/kg/injection, schedule: Q01DX009 (ip), vehicle: saline + alcohol) 0 of 6.
As for `CS(=O)(=O)OCCC(=O)N1CCN(C(=O)CCOS(C)(=O)=O)CC1`, the T/C (dose: 180.0 mg/kg/injection, schedule: Q01DX010 (ip), vehicle: saline) was 131 % of control.
In the case of `COC(=O)c1cc(-c2ccccc2)[nH]c1-c1ccccc1`, the survivor count under setting [7] is listed as 4 of 6 and the survivor count under setting [4] is recorded as 6 of 6.
`Cn1cnc([N+](=O)[O-])c1[Se]c1ncnc2c1ncn2C1OC(CO)C(O)C1O` (centres undefined): the survivor count (dose: 50.0 mg/kg/injection, schedule: Q01DX009 (ip), vehicle: saline) is 6 of 6; the survivor count (dose: 100.0 mg/kg/injection, schedule: Q04DX003 (ip), vehicle: saline) is recorded as 5 of 6; the survivor count under setting [6] is 0 of 6.
In the case of `CCCNCCC(O)c1cc(C(F)(F)F)nc2c(C(F)(F)F)cccc12` (centres undefined), under setting [2], the T/C was 129 % of control. For the same compound, the survivor count under setting [3] is given as 0 of 6.
As for `CC1(C)N=C(N)N=C(N)N1c1ccc(OCC(=O)Nc2ccc(S(=O)(=O)F)cc2)c(Cl)c1`, the T/C (dose: 66.0 mg/kg/injection, schedule: Q04DX003 (ip), vehicle: saline) is 131 % of control. Besides, the survivor count under setting [4] was 1 of 6 and the survivor count (dose: 400.0 mg/kg/injection, schedule: Q01DX008 (ip), vehicle: saline) is given as 4 of 6.
In the case of `COc1cccc(OC)c1C(c1c(OC)cccc1OC)c1c(OC)cccc1OC`, the T/C (dose: 50.0 mg/kg/injection, schedule: Q04DX003 (ip), vehicle: saline with Tween-80) was 129 % of control. Further, the survivor count was 1 of 6 under setting [3] and 1 of 6 (dose: 400.0 mg/kg/injection, schedule: Q01DX009 (ip), vehicle: saline with Tween-80).
`O=c1[nH]c(Cl)ncc1F`: the T/C by setting is: (dose: 75.0 mg/kg/injection, schedule: Q01DX009 (ip), vehicle: saline with Tween-80) 133 % of control; (dose: 150.0 mg/kg/injection, schedule: Q01DX009 (ip), vehicle: saline with Tween-80) 133 % of control. Under “dose: 300.0 mg/kg/injection, schedule: Q01DX009 (ip), vehicle: saline with Tween-80”, the survivor count is recorded as 4 of 6.
`Cc1cc([N+](=O)[O-])cc(C)c1OC(=O)c1ccc(N=C(N)N)cc1`: the survivor count is, setting by setting: under setting [7], 2 of 6; (dose: 200.0 mg/kg/injection, schedule: Q04DX003 (ip), vehicle: saline) 2 of 6.
For `c1ccc([B-]2([C+]3CCCCC3)N3CCCCC3C3CCCCN32)cc1` (centres undefined), the survivor count was 4 of 6 (dose: 50.0 mg/kg/injection, schedule: Q01DX009 (ip), vehicle: Klucel (hydroxypropylcellulose) (HPC)) and 0 of 6 (dose: 100.0 mg/kg/injection, schedule: Q01DX009 (ip), vehicle: Klucel (hydroxypropylcellulose) (HPC)).
In the case of `NCCCCC(N)C(=O)NC(CCCN=C(N)N)C(=O)O` (stereo not drawn) (H-Lys-Arg-OH; configuration not given here), the survivor count (dose: 12.5 mg/kg/injection, schedule: Q01DX009 (ip), vehicle: water) is given as 6 of 6.
